Assay results reported in patent US20260199297A1, “FERROPTOSIS INDUCERS TO TREAT CANCER” (The University of Toledo, priority 2022, published 2026).
For part of these data: At least one structure is not confirmed: it was looked up by name or label, or the drawing left a doubt. Some of these results come from one statement about several compounds together.

Experiments:
[1] = test system: protein bands between 25 kD to 38 kD; assay: Competitive binding assay against probe PPd (in-gel fluorescence); details: 20 μM concentration; bands 25 kD to 38 kD
NCI-H522 cells = assay: Live cell imaging, Kaplan-Meier cell survival analysis; assay type: cell-based, human; details: 10 μM, Kaplan-Meier plot

SMILES	competition of PPd-labelled protein bands by known ferroptosis inducers [1]	time to 50% cell death after treatment (NCI-H522 cells) [h]
CCOc1ccccc1-n1c(C(C)N2CCN(C(=O)COc3ccc(Cl)cc3)CC2)nc2ccccc2c1=O (stereo not drawn) [Erastin]	did not show any significant competition	–
C#Cc1nc(C2=C(C)C(OC(C)=O)/C(=N/OC(C)=O)C2)cs1 (stereo not drawn) [compound 20a, (E)-5-(Acetoxyimino)-3-(2-ethynylthiazol-4-yl)-2-methylcyclopent-2-en-1-yl acetate]	–	3 to 4
C#Cc1nc(C2=C(C)/C(=N/OCc3ccccc3)CC2)cs1 [compound 23, (E)-3-(2-Ethynylthiazol-4-yl)-2-methylcyclopent-2-en-1-one O-benzyl oxime]	–	4 to 5
